Like-named read-outs stand apart in the source and are kept apart here. Results are given in words; binding and its absence hold for the method and conditions named. In cells and extracts the contact can be indirect. A yes stands for co-enrichment or nearness to the bait. Other partners may have been found. Values belong to the molecule of their own block, whether it stands above or below them.
Key:
[1] = target: HmpFSyn-YFP (Synechocystis sp. PCC 6803) (UniProt P72839); assay: affinity purification with mass spectrometry; anti-GFP μMACS MicroBeads on cell-free lysate (PBS, 1% NP-40) of Synechocystis expressing HmpFSyn-YFP or Anabaena expressing YFP-All4981^ΔTPR3–4; eluted proteins identified by LC-MS/MS
[2] = target: HmpFSyn-YFP (Synechocystis sp. PCC 6803) (UniProt P72839); assay: as above; remark: listed apart in the source

Protein sequences, listed by entry. Tags and fused reporters are not part of them. Lines headed by an entry give the natural chain unless they say otherwise; changes in a name come on top.
UniProt P72839: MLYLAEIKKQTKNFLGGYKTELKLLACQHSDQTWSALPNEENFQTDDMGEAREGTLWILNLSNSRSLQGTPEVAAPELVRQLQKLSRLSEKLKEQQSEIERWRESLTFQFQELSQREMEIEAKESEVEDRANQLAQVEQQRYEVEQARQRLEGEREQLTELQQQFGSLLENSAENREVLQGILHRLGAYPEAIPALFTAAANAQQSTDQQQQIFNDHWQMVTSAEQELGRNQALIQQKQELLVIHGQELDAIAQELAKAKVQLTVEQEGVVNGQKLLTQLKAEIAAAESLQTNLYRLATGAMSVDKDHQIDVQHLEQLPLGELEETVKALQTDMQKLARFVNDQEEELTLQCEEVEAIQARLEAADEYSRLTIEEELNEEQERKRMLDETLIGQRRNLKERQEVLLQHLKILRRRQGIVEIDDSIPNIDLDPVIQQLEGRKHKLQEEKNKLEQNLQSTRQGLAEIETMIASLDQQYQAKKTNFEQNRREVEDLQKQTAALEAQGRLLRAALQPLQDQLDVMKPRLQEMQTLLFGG
UniProt P74463: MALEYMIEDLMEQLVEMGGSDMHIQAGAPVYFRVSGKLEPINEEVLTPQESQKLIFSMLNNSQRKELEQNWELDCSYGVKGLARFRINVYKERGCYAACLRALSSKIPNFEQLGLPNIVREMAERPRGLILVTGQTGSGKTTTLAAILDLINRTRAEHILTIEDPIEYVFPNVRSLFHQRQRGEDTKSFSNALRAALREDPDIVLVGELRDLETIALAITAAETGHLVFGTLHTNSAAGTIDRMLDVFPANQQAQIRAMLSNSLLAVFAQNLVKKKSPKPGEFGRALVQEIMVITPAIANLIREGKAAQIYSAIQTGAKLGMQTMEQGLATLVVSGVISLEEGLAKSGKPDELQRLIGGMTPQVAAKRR

- binding [1]: binds
Molecule: twitching motility protein (Slr0161) (from UniProt P74463)

- binding [2]: binds
B1: MinD (Synechocystis) (protein, UniProt Q55900 1-266)
chain: MNRIIVVTSGKGGVGKTTTTANLGAALARLGKKVVLIDADFGLRNLDLLLGLEQRIVYTAIDVLADECTIDKALVKDKRLPNLVLLPAAQNRSKDAINAEQMQSLVEQLKDKFDYIIIDCPAGIEAGFRNAVAPAQEAIIVTTPEMSAVRDADRVIGLLEAEDIGKISLIVNRLRPEMVQLNQMISVEDILDLLAVPLIGILPDDQKIIISTNKGEPLVMEEKLSVPGLAFQNIARRLEGQDIPFLDFMAAHNTLLNRIRRRLLGG

- binding [2]: binds
B2: FtsZ (Synechocystis) (protein, UniProt P73456 1-430)
chain: MTLNNDLPLNNIGFTGSGLNDGTEGLDDLFSSSIVDNEPLEALVETPTFASPSPNLKRDQIVPSNIAKIKVIGVGGGGCNAVNRMIASGVTGIDFWAINTDSQALTNTNAPDCIQIGQKLTRGLGAGGNPAIGQKAAEESRDEIARSLEGTDLVFITAGMGGGTGTGAAPIVAEVAKEMGCLTVGIVTRPFTFEGRRRAKQAEEGINALQSRVDTLIVIPNNQLLSVIPAETPLQEAFRVADDILRQGVQGISDIIIIPGLVNVDFADVRAVMADAGSALMGIGVGSGKSRAKEAATAAISSPLLESSIQGAKGVVFNVTGGTDLTLHEVNVAAEIIYEVVDADANIIFGAVIDDRLQGEMRITVIATGFNGEKEKPQAKTSSKPVLSGPPAGVETVPSTTTPEDPLGEIPMAPELDIPDFLQKRRFPRR

Source: PMC7002697
